Measured values reported in PubChem BioAssay AID587 (National Center for Advancing Translational Sciences (NCATS), 2007).
Among all 59,000 compounds or so, about 35 (0.06%) were called active. The inconclusive results got no clear call from the source; some entries with a clear call stand among them for comparison. No stated cut-off is given here; in the data, active means max dye-equivalent concentration above about 10 nM; inconclusive means between about 1.1 nM and that limit; inactive means weaker than that.

Test: qHTS Assay for Spectroscopic Profiling in Texas Red Spectral Region
Conditions: Compound fluorescence, Texas Red channel, 547/618 nm; hits give high values
How it was run: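 Dye-equivalent concentrations come from scaling compound signal (ex 547, em 618 nm) to six Texas Red standard concentrations run on every plate, after 15 min room-temperature incubation in pH 8.0 Tris (100 mM).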

| SMILES | max dye-equivalent concentration |
| --- | --- |
| CCN1C(=O)c2cccc3c(S(=O)(=O)NCc4ccco4)ccc1c23 | inconclusive: 1.5 nM |
| CCOC(=O)C1CCN(C(=O)CN(C)S(=O)(=O)c2cc(C)ccc2OC)CC1 | inconclusive: 1.5 nM |
| O=C(c1cc2cc(Cl)cc(Cl)c2oc1=O)N1CCOCC1 | inconclusive: 1.2 nM |
| O=c1c(-c2cccs2)nc2cnc(Oc3ccccc3)nc2n1-c1ccccc1 | inconclusive: 1.7 nM |
| Cc1ccc2cc(CN(Cc3nnnn3C3CCCCC3)CC3CCCO3)c(=O)[nH]c2c1 (centres undefined) | inconclusive: 1.4 nM |
| Cc1sc2ncnc(N[C@@H](CCC(=O)O)C(=O)O)c2c1C | inconclusive: 1.1 nM |
| O=C(Nc1nc2c(s1)CCCC2)Oc1ccccc1 | inconclusive: 1.2 nM |
| Cc1nn(-c2ccc(C(=O)O)cc2)c(N)c1-c1ccccc1 | inconclusive: 1.4 nM |
| O=C(/C=C\c1ccc(O)c(O)c1)OCCc1ccccc1 | inactive |
| c1ccc(-c2nc(NC3CC3)nc(-n3ccnc3)n2)cc1 | inconclusive: 1.3 nM |
| CCCCCCC(=O)NCC(=O)OCC(=O)c1ccccc1 | inconclusive: 1.3 nM |
| Nc1ccc(CCNc2ncnc3c2ncn3[C@@H]2O[C@@H](CO)[C@H](O)[C@@H]2O)cc1 | inactive |
| CC(=O)Nc1ccc(C(=O)NC2CCCC2)cc1 | inconclusive: 1.6 nM |
| CN(c1ccccc1)S(=O)(=O)c1ccc(C(=O)OCC(=O)N2CCOCC2)cc1 | inconclusive: 1.1 nM |
| CC(=O)Nc1cccc(Cn2cccn2)c1 | inconclusive: 1.1 nM |
| O=C(Nc1ccc(Oc2ccc(NC(=O)c3ccco3)c(NC(=O)c3ccco3)c2)cc1)c1ccco1 | inconclusive: 1.4 nM |
| O=c1c2nnn(Cc3ccccc3)c2ncn1-c1ccccc1 | inconclusive: 1.1 nM |
| Cc1cc(N(CN2CCCC2=O)C(=O)c2ccccc2)no1 | inconclusive: 1.2 nM |
| COCCCNC(=O)CCc1nc2cccnc2n1Cc1ccc(OC)cc1 | inconclusive: 2.2 nM |
| Nc1nc(N)c2nn(-c3ccc(C(=O)O)cc3)nc2n1 | inconclusive: 1.1 nM |
| O=C(O)C1C2C=CC(C2)C1C(=O)N1CCc2ccccc21 (centres undefined) | inconclusive: 1.9 nM |
| Cc1cc(C(=O)CN2C(=O)NC3(CCCCC3)C2=O)c(C)n1Cc1ccc2c(c1)OCO2 | inconclusive: 1.4 nM |

By substructure, the entries above with a thiophene ring, fused or not.

| SMILES | max dye-equivalent concentration |
| --- | --- |
| O=c1c(-c2cccs2)nc2cnc(Oc3ccccc3)nc2n1-c1ccccc1 | inconclusive: 1.7 nM |
| Cc1sc2ncnc(N[C@@H](CCC(=O)O)C(=O)O)c2c1C | inconclusive: 1.1 nM |

Additional structures follow:

| SMILES | max dye-equivalent concentration |
| --- | --- |
| Cc1[nH]c2ccccc2c1C(O)CN1CCN(c2cccc(C(F)(F)F)c2)CC1 (centres undefined) | inconclusive: 1.7 nM |
| O=C(CCCOc1ccc(Cl)cc1Cl)NCCCO | inconclusive: 1.2 nM |
| c1cncc(-c2cc(-c3cc(-c4cccnc4)n[nH]3)[nH]n2)c1 | inconclusive: 1.4 nM |
| Cn1cnc2c(NCc3ccccc3)nc(NCCO)nc21 | inconclusive: 1.8 nM |
| Cc1ccc(C)c2[nH]c(=O)c(CCNC(=O)c3ccc(Br)o3)cc12 | inconclusive: 1.5 nM |
| CCOC(=O)c1ccccc1NC(=O)CSc1nc2ccccc2n1CC(=O)N1CCCC1 | inconclusive: 1.5 nM |
| COC(=O)c1c[nH]n2c(=O)c(Cc3ccc(F)cc3Cl)c(C)nc12 | inconclusive: 1.1 nM |
| CN(C)Cc1cc(C(C)(C)C)cc(CNC2CCCCC2)c1O | inconclusive: 1.1 nM |
| CCCCn1c2nc3ccccc3nc2c2c(=O)n(CCC(C)C)cnc21 | inconclusive: 1.2 nM |
| COc1ccc(N2CCN(C(c3cc4ccc(C)cc4[nH]c3=O)c3nnnn3C3CCCC3)CC2)cc1 (centres undefined) | inconclusive: 1.6 nM |
| Nc1c(OCC(=O)O)ccc2cc(S(=O)(=O)O)ccc12 | inconclusive: 1.6 nM |
| CCOc1ccc(-c2[nH]nc3c2C(c2ccc(O)cc2)C(C#N)=C(N)O3)cc1 (centres undefined) | inconclusive: 1.4 nM |
| Cc1ccccc1CSc1nnc(-c2cccnc2)n1N | inconclusive: 1.8 nM |
| O=C(c1cc(C(F)(F)F)cc(C(F)(F)F)c1)N1CCC2(CC1)CN(c1ccccn1)C2 | inactive |
| COc1cccc2c1C(=O)c1c(O)c3c(c(O)c1C2=O)C[C@@](O)(C(=O)CO)C[C@@H]3O[C@H]1C[C@H](N)[C@H](O)[C@H](C)O1 | active: 83 nM |
| COCCn1c(C)cc(C(=O)COC(=O)c2ccc(-n3nc(C)cc3C)cc2)c1C | inconclusive: 1.4 nM |
| C=CCn1c(COc2ccccc2)nnc1SCC(=O)O | inconclusive: 2.4 nM |
| Cc1cnc(CNc2ccnc(-c3ccoc3)n2)cn1 | inactive |
| CCNc1ncc2nc(C)c(=O)n(Cc3ccc(F)cc3)c2n1 | inactive |
| COc1ccc(OC)c2sc(N3CCN(c4ccccc4)CC3)nc12 | inconclusive: 1.3 nM |
| CCOC(=O)C(Cc1c[nH]c2ccccc12)NC(=O)c1ccco1 (centres undefined) | inconclusive: 2.4 nM |
| CCCC(=O)NCCc1cc2cc(C)c(C)cc2[nH]c1=O | inconclusive: 2.1 nM |
